# Reference: US20220152160A1, “DOSING REGIMEN” (Novo Nordisk A/S, priority 2013, published 2022)
# Experiments:
# [1] = system: subjects with type 2 diabetes mellitus; assay: Clinical Trial 2: daily insulin dose required at end of trial; assay type: in vivo, human; conditions: end of the trial; both arms
# Description: This was a confirmatory 22-week, randomised (1:1), open labelled, stratified, multi-centre, two armed parallel group, treat-to-target, controlled trial comparing efficacy and safety of IDeg 200 U/mL with IDeg 100 U/mL, both in combination with pre-trial OAD treatment, in subjects with type 2 diabetes mellitus.
# During the trial treatment period the insulin dose was to be titrated once weekly by the investigator based upon the subject's SMPG levels and the Insulin Titration Guideline. The insulin dose adjustments were to aim at a pre-breakfast SMPG value between 4.0 and 5.0 mmol/L (71 and 90 mg/dL).
# The starting dose of trial insulin was to be based on a 1:1 transfer of the total daily pre-randomisation insulin therapy dose. No maximum insulin dose was specified.
# [2] = system: insulin-naïve participants with T2DM; assay: Clinical Trial 1: daily insulin dose after 26 weeks of titration; assay type: in vivo, human
# Description: This phase 3a, 26-week, randomized, controlled, open-label, multinational, treat-to-target, non-inferiority trial compared the efficacy and safety of IDeg U-200 (i.e. 200 U/mL) and IGlar (100 U/mL) both administered OD in combination with metformin (met) ±DPP-4 inhibitor in insulin-naïve participants with T2DM previously treated with oral antidiabetic drugs OAD(s), who qualified for intensification of treatment. The trial was open-label because the pen devices used to administer the basal insulins were distinctively different and blinding was, therefore, impossible.
# Using the interactive voice/web response system, eligible participants were randomized 1:1 to either once-daily IDeg U-200 (IDeg 200 U/mL, 3 mL FlexTouch®, Novo Nordisk, Bagsvård, Denmark) or once-daily IGlar (Lantus® 100 U/mL, 3 mL SoloStar® Sanofi Aventis U.S. LLC) and continued metformin ±DPP-4 inhibitor treatment. Trial participants were instructed to continue the same total daily dose of metformin and DPP-4 inhibitor treatment as before the start of the trial.
# Insulin degludec was administered once-daily with the main evening meal and, consistent with its product labelling, IGlar was administered once-daily (OD) at the same time each day. Either treatment was injected subcutaneously in the thigh, upper arm or abdomen. The starting dose for each was 10 U, and during the treatment period, the insulin dose was systematically titrated using a treat-to-target approach striving for a pre-breakfast self-measured plasma glucose (SMPG) level of 4.0-4.9 mmol/L (71-89 mg/dL). Both IDeg and IGlar were similarly titrated once weekly in 2 U increments. The treatment period was 26 weeks and doses were individually titrated in an effort to achieve the same glucose targets with both treatments.
substance,measurement,setting,value
NεB29-(Nα—(HOOC(CH2)14CO)-γ-Glu)des(B30)-human insulin [insulin degludec],percentage of all subjects who required >160 U,[1],approximately 6%
same,percentage of all subjects who required a daily IDeg dose of >80 U,[1],approximately 38%
same,mean ratio IDeg/IGlar of daily insulin dose (U),[2]; after 26 weeks of treatment,0.95
same,mean ratio IDeg/IGlar of daily insulin dose (U/kg),[2]; after 26 weeks of treatment,0.94
same,percentage of participants who required more than 80 U of insulin,[2]; end of trial,21.2%
same,percentage of participants who required more than 160 U of insulin daily,[2]; end of trial,0.9%
